Results are given in words; binding and its absence hold for the method and conditions named. Binding seen in cells or lysates may run through a third protein. Some entries that bind do so weakly or less than the wild type.
Molecular target: T1, vascular endothelial (VE)-cadherin (human (endogenous in HUVEC)), P33151
T1 chain: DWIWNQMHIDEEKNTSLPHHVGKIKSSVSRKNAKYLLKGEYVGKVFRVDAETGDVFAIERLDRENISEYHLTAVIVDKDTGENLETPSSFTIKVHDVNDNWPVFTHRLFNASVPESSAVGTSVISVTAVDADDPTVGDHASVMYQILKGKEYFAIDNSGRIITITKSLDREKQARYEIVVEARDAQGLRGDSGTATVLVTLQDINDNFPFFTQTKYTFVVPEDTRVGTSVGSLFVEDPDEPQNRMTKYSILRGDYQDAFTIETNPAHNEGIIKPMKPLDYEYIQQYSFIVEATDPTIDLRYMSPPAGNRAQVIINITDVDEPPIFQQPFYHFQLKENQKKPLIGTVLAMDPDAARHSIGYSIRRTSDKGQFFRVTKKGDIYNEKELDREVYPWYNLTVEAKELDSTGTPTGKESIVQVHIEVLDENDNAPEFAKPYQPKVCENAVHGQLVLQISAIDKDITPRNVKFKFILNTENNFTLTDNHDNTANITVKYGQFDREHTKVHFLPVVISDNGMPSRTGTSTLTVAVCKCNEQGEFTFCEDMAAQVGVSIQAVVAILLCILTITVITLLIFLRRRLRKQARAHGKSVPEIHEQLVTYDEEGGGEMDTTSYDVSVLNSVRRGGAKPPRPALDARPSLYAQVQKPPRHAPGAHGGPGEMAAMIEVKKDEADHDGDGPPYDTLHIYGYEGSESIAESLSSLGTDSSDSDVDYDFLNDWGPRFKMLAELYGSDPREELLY
Experiment: co-IP; immunoprecipitation of VE-cadherin from HUVEC cultured with MDA MB231 cells for 0 min, 5 min, 30 min and 1 h, then immunoblotting
Conditions: remark: other sources report otherwise

B1: β-catenin, P35222 1-781 (protein)
chain: MATQADLMELDMAMEPDRKAAVSHWQQQSYLDSGIHSGATTTAPSLSGKGNPEEEDVDTSQVLYEWEQGFSQSFTQEQVADIDGQYAMTRAQRVRAAMFPETLDEGMQIPSTQFDAAHPTNVQRLAEPSQMLKHAVVNLINYQDDAELATRAIPELTKLLNDEDQVVVNKAAVMVHQLSKKEASRHAIMRSPQMVSAIVRTMQNTNDVETARCTAGTLHNLSHHREGLLAIFKSGGIPALVKMLGSPVDSVLFYAITTLHNLLLHQEGAKMAVRLAGGLQKMVALLNKTNVKFLAITTDCLQILAYGNQESKLIILASGGPQALVNIMRTYTYEKLLWTTSRVLKVLSVCSSNKPAIVEAGGMQALGLHLTDPSQRLVQNCLWTLRNLSDAATKQEGMEGLLGTLVQLLGSDDINVVTCAAGILSNLTCNNYKNKMMVCQVGGIEALVRTVLRAGDREDITEPAICALRHLTSRHQEAEMAQNAVRLHYGLPVVVKLLHPPSHWPLIKATVGLIRNLALCPANHAPLREQGAIPRLVQLLVRAHQDTQRRTSMGGTQQQFVEGVRMEEIVEGCTGALHILARDVHNRIVIRGLNTIPLFVQLLYSPIENIQRVAAGVLCELAQDKEAAEAIEAEGATAPLTELLHSRNEGVATYAAAVLFRMSEDKPQDYKKRLSVELTSSLFRTEPMAWNETADLGLDIGAQGEPLGYRQDDPSYRSFHSGGYGQDALGMDPMMEHEMGGHHPGADYPVDGLPDLGHAQDLMDGLPPGDSNQLAWFDTDL
binding: binds

— article PMC2062786
